These results are taken from patent US20060257938A1, “Method of screening for drugs that block ligand binding to a lipid binding protein” (priority 2005, published 2006).

Substitutions are numbered along the chain they refer to.

B1: 23L, 72A (protein, listed as Rattus norvegicus)
chain: AFDGTWKVDRNENYEKFMEKMGLNVVKRKLGAHDNLKLTITQEGNKFTVKESSNFRNIDVVFELGVDFAYSAADGTELTGTWTMEGNKLVGKFKRVDNGKELIAVREISGNELIQTYTYEGVEAKRIFKKE
modifications: PEPTIDE (1)...(131) wild-type rat intestinal fatty acid binding protein
B2: 23Y, 72A (protein, listed as Rattus norvegicus)
chain: B1 chain with L23Y
modifications: PEPTIDE (1)...(131) wild-type rat intestinal fatty acid binding protein
B3: 115H, 72A (protein, listed as Rattus norvegicus)
chain: B1 chain with L23I, Q115H
modifications: PEPTIDE (1)...(131) wild-type rat intestinal fatty acid binding protein
B4: 55Q, 72A (protein, listed as Rattus norvegicus)
chain: B1 chain with L23I, F55Q
modifications: PEPTIDE (1)...(131) wild-type rat intestinal fatty acid binding protein
B5: 82F, 72A (protein, listed as Rattus norvegicus)
chain: B1 chain with L23I, W82F
modifications: PEPTIDE (1)...(131) wild-type rat intestinal fatty acid binding protein
B6: 106M, 72A (protein, listed as Rattus norvegicus)
chain: B1 chain with L23I, R106M
modifications: PEPTIDE (1)...(131) wild-type rat intestinal fatty acid binding protein
B7: 78A, 72A (protein, listed as Rattus norvegicus)
chain: B1 chain with L23I, L78A
modifications: PEPTIDE (1)...(131) wild-type rat intestinal fatty acid binding protein
B8: 11V, 72A (protein, listed as Rattus norvegicus)
chain: B1 chain with N11V, L23I
modifications: PEPTIDE (1)...(131) wild-type rat intestinal fatty acid binding protein
B9: 38Y 18L 73V 72A (protein, listed as Rattus norvegicus)
chain: B1 chain with M18L, L23I, L38Y, A73V
modifications: PEPTIDE (1)...(131) wild-type rat intestinal fatty acid binding protein
B10: 78I, 72A (protein, listed as Rattus norvegicus)
chain: B1 chain with L23I, L78I
modifications: PEPTIDE (1)...(131) wild-type rat intestinal fatty acid binding protein
B11: 11W, 72A (protein, listed as Rattus norvegicus)
chain: B1 chain with N11W, L23I
modifications: PEPTIDE (1)...(131) wild-type rat intestinal fatty acid binding protein
B12: 104Y, 72A (protein, listed as Rattus norvegicus)
chain: B1 chain with L23I, A104Y
modifications: PEPTIDE (1)...(131) wild-type rat intestinal fatty acid binding protein
B13: 55I, 72A (protein, listed as Rattus norvegicus)
chain: B1 chain with L23I, F55I
modifications: PEPTIDE (1)...(131) wild-type rat intestinal fatty acid binding protein
B14: 115N, 72A (protein, listed as Rattus norvegicus)
chain: B1 chain with L23I, Q115N
modifications: PEPTIDE (1)...(131) wild-type rat intestinal fatty acid binding protein
B15: 38I 72G (protein, listed as Rattus norvegicus)
chain: B1 chain with L23I, L38I, A72G
modifications: PEPTIDE (1)...(131) wild-type rat intestinal fatty acid binding protein
B16: 104F, 72A (protein, listed as Rattus norvegicus)
chain: B1 chain with L23I, A104F
modifications: PEPTIDE (1)...(131) wild-type rat intestinal fatty acid binding protein
B17: 21W 78F 72A (protein, listed as Rattus norvegicus)
chain: B1 chain with M21W, L23I, L78F
modifications: PEPTIDE (1)...(131) wild-type rat intestinal fatty acid binding protein
B18: 21I, 72A (protein, listed as Rattus norvegicus)
chain: B1 chain with M21I, L23I
modifications: PEPTIDE (1)...(131) wild-type rat intestinal fatty acid binding protein
B19: 78V, 72A (protein, listed as Rattus norvegicus)
chain: B1 chain with L23I, L78V
modifications: PEPTIDE (1)...(131) wild-type rat intestinal fatty acid binding protein
B20: 38Q 106W 117A 72A (protein, listed as Rattus norvegicus)
chain: B1 chain with L23I, L38Q, R106W, Y117A
modifications: PEPTIDE (1)...(131) wild-type rat intestinal fatty acid binding protein
B21: 18L 55L 73I 72A (protein, listed as Rattus norvegicus)
chain: B1 chain with M18L, L23I, F55L, A73I
modifications: PEPTIDE (1)...(131) wild-type rat intestinal fatty acid binding protein
B22: 21V, 72A (protein, listed as Rattus norvegicus)
chain: B1 chain with M21V, L23I
modifications: PEPTIDE (1)...(131) wild-type rat intestinal fatty acid binding protein
B23: 82V, 72A (protein, listed as Rattus norvegicus)
chain: B1 chain with L23I, W82V
modifications: PEPTIDE (1)...(131) wild-type rat intestinal fatty acid binding protein
B24: 14V 18L 73V 117A 72A (protein, listed as Rattus norvegicus)
chain: B1 chain with Y14V, M18L, L23I, A73V, Y117A
modifications: PEPTIDE (1)...(131) wild-type rat intestinal fatty acid binding protein
B25: 21W 78I 72A (protein, listed as Rattus norvegicus)
chain: B1 chain with M21W, L23I, L78I
modifications: PEPTIDE (1)...(131) wild-type rat intestinal fatty acid binding protein
B26: 21W 72A (protein, listed as Rattus norvegicus)
chain: B1 chain with M21W, L23I
modifications: PEPTIDE (1)...(131) wild-type rat intestinal fatty acid binding protein
B27: 14L 72G (protein, listed as Rattus norvegicus)
chain: B1 chain with Y14L, L23I, A72G
modifications: PEPTIDE (1)...(131) wild-type rat intestinal fatty acid binding protein
B28: 55V, 72A (protein, listed as Rattus norvegicus)
chain: B1 chain with L23I, F55V
modifications: PEPTIDE (1)...(131) wild-type rat intestinal fatty acid binding protein
B29: 11M, 72A (protein, listed as Rattus norvegicus)
chain: B1 chain with N11M, L23I
modifications: PEPTIDE (1)...(131) wild-type rat intestinal fatty acid binding protein
B30: 104G, 72A (protein, listed as Rattus norvegicus)
chain: B1 chain with L23I, A104G
modifications: PEPTIDE (1)...(131) wild-type rat intestinal fatty acid binding protein
B31: 78Y, 72A (protein, listed as Rattus norvegicus)
chain: B1 chain with L23I, L78Y
modifications: PEPTIDE (1)...(131) wild-type rat intestinal fatty acid binding protein
B32: 49D, 72A (protein, listed as Rattus norvegicus)
chain: B1 chain with L23I, V49D
modifications: PEPTIDE (1)...(131) wild-type rat intestinal fatty acid binding protein
B33: 14L 72G 117I (protein, listed as Rattus norvegicus)
chain: B1 chain with Y14L, L23I, A72G, Y117I
modifications: PEPTIDE (1)...(131) wild-type rat intestinal fatty acid binding protein

The first series is described as follows: Baseline fluorescence ratio Ro of probe in absence of analyte. The conditions noted are these: baseline fluorescence ratio of probe.
As to B1, the Ro stood at 0.229.
In the case of B2, the Ro was determined as 0.265.
As to B3, the Ro came out at 0.155.
Turning to B4, the Ro is reported as 0.225.
Regarding B5, the Ro stood at 0.139.
For the molecule B6, the Ro is given as 0.231.
As for B7, the Ro was 0.239.
Take B8: the Ro came to 0.363.
Still for that read-out and setting: next, B9: 0.386; B10: 0.176.
Same read-out and setting: next, B11: 0.262; B12: 0.878; B13: 0.181.
Same read-out and setting: the result for B14 reads 0.164; that for B15, 0.290; that for B16, 0.344.
For the molecule B17, the Ro was 0.604.
With B18, the Ro turned out to be 0.241.
On to B19, for which the Ro worked out at 0.255.
The same measure, in the same setting: the result for B20 reads 0.301; that for B21, 0.474.
Regarding B22, the Ro was determined as 0.269.
As to B23, the Ro worked out at 0.263.
As to B24, the Ro came out at 0.110.
For B25, the Ro was 0.664.
Consider B26, for which the Ro is 0.616.
Take B27: the Ro is recorded as 0.377.
For B28, the Ro came out at 0.169.
As for B29, the Ro came out at 0.325.
For B30, the Ro is listed as 0.162.
Regarding B31, the Ro amounted to 0.314.

Still in this series, the particulars now being: baseline fluorescence ratio of probe, no fatty acid.
Take B5: the Ro is recorded as 0.139.
In the case of B6, the Ro is 0.231.
For B7, the Ro stood at 0.239.
Turning to B11, the Ro amounted to 0.262.
Still for that read-out and setting: the result for B12 reads 0.878.
The same measure, in the same setting: next, B18: 0.241; B32: 0.231; B33: 0.246.
